Source: PubChem BioAssay AID1508600 (Functional Genomics Laboratory (NCATS/FGL), 2020)
In all, about 53,000 sequences went through this assay and about 3,700 (7%) were called active.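 How the source made its calls: active means gene knockdowns whose robust z-score for IL-1 alpha signal is at least 2 or at most -2, so actives lie on both sides; inactive means the rest.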 This is one part of the list.

Experiment: Components of the Cytosolic LPS Sensing Pathway: Gene Identification via Genome-wide siRNA Screen;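 further: robust z of the log signal after scaling to non-targeting control siRNA wells of the plate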
Settings: RAW264.7 macrophages, IL-1a HTRF, actives lie on both sides, screened at 100 nM (by protocol), cells primed 5 h with Pam3CSK4 first
How it was run: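 Read-out: IL-1a HTRF on supernatant, divided by plate negative-control median ×100, log-transformed and converted to robust z-score. Cells were RAW264.7 given 100 nM siRNA, Pam3CSK4-primed 5 hours, then LipidA-transfected 24 hour.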

Sequence	z-score
GGUCUCUUCAUUCUUGUGCTT against 1700084J12Rik	inactive: 0.934
GCUCAUUCUUACCAAUCUCTT against Vsig2	active: -2.25
GGAAUAGUAUACAAUAACCTT against Fbxl5	inactive: 0.993
GAACAACAACAGACAAGUGTT against Cxcl12	inactive: -0.65
CCCAGUGAAUCUAAGAAAATT against Zfp260	inactive: 1.33
CCCUACUCCUCAGAACUUATT against Tbc1d10a	inactive: -0.499
CGCACCUCCAGAUCAAAAGTT against Ucn3	inactive: 1.69
AACUUAUGGUUGGUUGUCGTT against Marveld3	inactive: -0.159
GGGCAAUCAAGAUAACAAATT against Stk35	inactive: 1.09
GGGUCCCUUUGUCAGUAUGTT against Cfap300	inactive: 0.932
CCCUGGUUAUCACAGACAATT against Rpl38	inactive: 1.53
GCUGGGAAAGCAGAAUCUATT against 0610009B22Rik	inactive: -0.747
GCAGUAAAUGCGAGCAGGATT against Hoxb8	inactive: 0.809
GCACCAAAUUUUGUGCUUUTT against Olfr395	inactive: 0.555
GCGACAAAGCUCGUUAUGATT against Hmgb2	active: -2.3
CCUACUUAUGCCUUGCCACTT against Rbpjl	inactive: -0.403
GGAGAAUCUUCAACACUGGTT against Adprh	inactive: -0.951
CCAAGCAACACCACUCAUCTT against Acap2	inactive: -0.681
CCAAAGUCUGUUAAUGGGUTT against 4921517D22Rik	inactive: 0.401
GGACCAGAUAAUAAAGGAATT against Tmed2	inactive: -1.16
GGACCAACAAGUUCAUCAATT against Arhgap10	inactive: 1.26
GGUAACAGAAUACCUGUCCTT against Hapln4	inactive: -0.506
CGGACUGUGUGUGCCAAGUTT against Trmt11	inactive: -0.337

Sequence	z-score
GGAACCCAAGUGCUUAGAATT against Riox1	inactive: -0.478
GGGCCAUCUGUACUAUGAUTT against Tgm4	inactive: 0.944
GGCCUCAAGAGCAAUACGUTT against Zfp663	inactive: -0.687
GGUGCUUUUAGUCUAGCUATT against Pcdhac1	inactive: 1.83
CCAUUUGAGGUAUUGGUAUTT against Acadsb	inactive: -0.587
GCUUUAUGCCAGUUGUCAUTT against Slc35f1	inactive: -0.927
GGCUACAAGUGGGAAUUCATT against Cmtm2b	inactive: 1.61
GGCAAGGUCUUGGAUGUGATT against Mx1	inactive: -0.574
CGACUUCCAGUUUGUGCAGTT against Dpp9	inactive: -0.575
GGUGAAAAGUCAAUUUUACTT against Neurog1	inactive: -0.562
GGACCUCACUGAGACCUUATT against Anxa8	inactive: -0.375
CGUGAAUCUGCACCACGUUTT against Fads6	inactive: 0.474
GCAGUCACUUUUUAGUAUCTT against Vmn1r44	inactive: 0.294
GGAUGAAAAGCUUCAAUGUTT against Tomm70a	inactive: -0.468
GGCAUUUCUUCAAAGCUGATT against Il1bos	inactive: -0.0768
CGCACUAGGUGAGUUCAUCTT against Dab2ip	inactive: 0.725
CCUUGAGAAAGCUCCAGUUTT against Cldn9	inactive: 0.0773
GCUUUACCUGCUCAGAAGCTT against Olfr520	active: -2.26
CCGGUUAUAGCGAACAUUUTT against Appl1	inactive: 1.63
GGAAGAAAUCAUGAGGAACTT against Xab2	inactive: -0.616
CGGUAUGUGUUGUCAGAGGTT against Mypop	inactive: -0.695
GCCUCCACAGACAAAUACGTT against Synrg	inactive: -0.129
GAGCAGAGGAUUGAUGCACTT against Nlrp4g	inactive: 0.918

Copied from the entries so far (3 entries):
Sequence	z-score
GGGCCAUCUGUACUAUGAUTT against Tgm4	inactive: 0.944
GGCCUCAAGAGCAAUACGUTT against Zfp663	inactive: -0.687
GGUGCUUUUAGUCUAGCUATT against Pcdhac1	inactive: 1.83

Remaining list, next part:

Sequence	z-score
GGCACGUUAUGAAGACCAGTT against Ttc6	inactive: 1.49
GGAGGAAAUGCACUACAAGTT against Pcif1	inactive: 1.88
GGAAGUACAAACUACUAGUTT against Mcmbp	inactive: -0.393
GUAUUAAGACCAAACAGAUTT against Olfr623	inactive: -0.497
GGACCUGAGUUAGGAGAAUTT against Zfp105	active: -2.06
GGUGAUAAUAAAAAUGCAGTT against Pzp	inactive: -0.0816
GGGAUGUAUUUCAACAACUTT against Wwox	inactive: 0.0276
CCUUGAUGGUAAAUACUCATT against Vmn1r200	inactive: -0.879
GCCUUCGAAGUCGUCCAAGTT against Cdca5	inactive: 0.612
CCUACUGUUGCUAUUACCATT against Oscar	inactive: -1.99
GGAACUGGCCAAGUACUUCTT against Sst	inactive: 0.412
GGAUGACAAGGUUAAGCUATT against Golm2	inactive: -0.0855
GGUUUGAAAUGAAACUUCATT against Nedd4l	inactive: -0.0699
GGCUUCCUUCAGUGAGAAUTT against 1810065E05Rik	active: -2.02
GGUUCCUUUCCUUGAACUUTT against Mtmr3	inactive: 1.37
GUGCAACGUGAGCAAUACGTT against Selenbp2	inactive: -0.417
GGCACAUCAGAAUGGUUUATT against Txnrd3	inactive: 1.27
GCUCAGAUCUUAUGAUACATT against Zfp35	inactive: 0.398
GGAGAUCCGGAAUUUUUAATT against Per2	inactive: -0.0639
GGACUUCUUGCUGGUCUAGTT against Spg7	inactive: 1.71
GGACCACAUUUUAUGUUGUTT against Trmt10b	inactive: -0.129
GGAGGUGUAGAGAUGAAGCTT against Metap1d	inactive: 1.51
